In publication PMC7051184, “C9orf72 arginine-rich dipeptide repeat proteins disrupt karyopherin-mediated nuclear import” (eLife, 2020):

Assay: Mass spectrometry of R-DPR-induced aggregates
Set-up: species or system human

N=C(N)NCCC[C@H](NC(=O)[C@@H]1CCCN1C(=O)[C@H](CCCNC(=N)N)NC(=O)[C@@H]1CCCN1C(=O)[C@H](CCCNC(=N)N)NC(=O)[C@@H]1CCCN1C(=O)[C@H](CCCNC(=N)N)NC(=O)[C@@H]1CCCN1C(=O)[C@H](CCCNC(=N)N)NC(=O)[C@@H]1CCCN1C(=O)[C@H](CCCNC(=N)N)NC(=O)[C@@H]1CCCN1C(=O)[C@H](CCCNC(=N)N)NC(=O)[C@@H]1CCCN1C(=O)[C@H](CCCNC(=N)N)NC(=O)[C@@H]1CCCN1C(=O)[C@H](CCCNC(=N)N)NC(=O)[C@@H]1CCCN1C(=O)[C@H](CCCNC(=N)N)NC(=O)[C@@H]1CCCN1)C(=O)O [PR10] (H-PRPRPRPRPRPRPRPRPRPR-OH; N-terminus and C-terminus assumed)
MS hits unique to the DPR: 11% | Number of proteins identified in aggregates by mass spectrometry (in each of two replicates, 50 µM GR10 or 25 µM PR10 in 5 mg/ml HEK lysate, 60 min, 37°C): 758

Where a SMILES comes first, the peptide text is derived from it.
